Consider one molecule from patent publication EP4785953A1.

Results are given in words; binding and its absence hold for the method and conditions named. Binding can be weak; no strength is given.

The target of this assay is monkey c-MET protein (monkey). In words: ForteBio BLI affinity measurement.

B1: anti-c-MET antibody-1 (antibody, V domains shown)
VH: EVQLQESGPGLVKPSETLSLTCTVSGGSVTSVNYYWKWIRQPPGKGLEWIGYISYSGNTNYNPSLKSRVTISVDTSKNQFSLKLSSVTAADTAVYYCVRAPYYYMDVWSKGTTVTVSS
VL: DIVMTQSPSSVSASVGDRVTITCRASQGISSWLAWYQQKPGKAPKLLIYAVSSLQSGVPSRFSGSGSGTDFTLTISSLQPEDFATYFCQQANSFPLTFGGGTKVEIK
In the case of B1, the binding entry was “binds”.
